We go through 79 compounds from PMC12040169 (PLOS Biology, 2025).

The other results are listed elsewhere or left out.

This experiment deals with T1, CTL2-GFP (C. trachomatis L2/434/Bu, GFP-expressing).
T1 construct: L2/434/Bu, GFP-expressing
Set-up: species or system HeLa; Intracellular C. trachomatis growth in HeLa cells, bulk GFP fluorescence relative to DMSO. The conditions noted are these: bulk GFP, single well; 28.5 h, 10 µM; inhibitor.
Turning to `O=C(Nc1ccc2c(c1)nc1n2CCOC1)C1CCCCC1` [CBK307570], the “% of control remaining” value is on record as 95.5855%.
With `COCCC(=O)N1CCC(F)CC1` [CBK200399] the figure was 71.4002%.
With `CN(C)c1ccc(CCNC(=O)c2c3c(nn2C)CCCC3)cc1` [CBK281824] the figure was 118.711%; with `CNC(=O)C1(Cc2ccc(-c3cccs3)cc2)CCN(C(=O)C2CCCCC2)CC1` [CBK285793], 140.125%; with `CCNC(=O)Nc1ncc(-c2ccc(C(C)(C)C)cc2)c2cccnc12` [CBK070632], 111.751%.
With `O=C(NCCC1=CCCCC1)c1cnc2n(c1=O)CCS2` [CBK287373] the figure was 118.389%; with `COc1cncc(-c2ccc(N3CCN(CCN(C)C)CC3)nc2)c1` [CBK037720], 202.237%.
On to `COc1ccccc1OCC(=O)N1CCC2(CCNC2)C1` (stereo not shown) [CBK156703C], for which the “% of control remaining” value worked out at 122.575%.
`Cc1c(C(=O)C2=C(O)C(=O)N(Cc3cccnc3)C2c2ccc(F)cc2)cnn1-c1ccccc1` (stereo not shown) [CBK266541]: the “% of control remaining” value was 136.021%.
For `Nn1c(CSc2ccccn2)nnc1CSc1ccccn1` [CBK266987], the “% of control remaining” value is recorded as 132.049%.
With `Cc1cccc2c(C(=O)NCc3ccc(S(N)(=O)=O)cc3)cc(-c3ccccc3Cl)nc12` [CBK267743] the figure was 98.9659%.
The figure for `O=C(O)c1ccc(S(=O)(=O)c2ccc(Oc3ccc4c(c3)C(=O)N(c3cccc(C(=O)O)c3)C4=O)cc2)cc1` [CBK263608] is 100%; for `Cc1ccc(-c2ccc(CCC(=O)O)n2CC2CCCO2)cc1` (stereo not shown) [CBK268636] it is 135.968%.
With `CN(C(=O)C1(C)CCOCC1)c1nc2c(s1)CC(c1ccccc1)CC2` (stereo not shown) [CBK305531] the figure was 131.494%; with `COCCNC(=O)N1CCCC(CO)C1` (stereo not shown) [CBK156040], 125.537%; with `CC(=O)Nc1ccc(-c2ccc(C(=O)NCc3ccc(C(C)C)cc3)cn2)cc1` [CBK158857], 80.1668%.
As for `Cc1ccnc2nc(C(=O)OCC(=O)Nc3cccc(C#N)c3)nn12` [CBK305068], the “% of control remaining” value is reported as 142.38%.
With `COc1cc(-c2nccnc2NCC2CCCCC2)cc(OC)c1OC` [CBK037647] the figure was 100.21%.
With `CNC(=O)c1cnc(SC)nc1NCCc1c[nH]c2ccccc12` [CBK093597] the figure was 60.6313%; with `CS(=O)(=O)CCS(=O)(=O)N1CCOCC1c1cccc(F)c1` (stereo not shown) [CBK304111], 149.792%; with `CCc1nc2ccc(C(=O)N(C)CCN(C)C)cn2c1N(C)Cc1cc2ccccc2s1` [CBK146551], 111.495%.
With `O=C(O)C(c1c[nH]c2cc(CO)ccc12)N1CCCN(c2ccc(C(F)(F)F)cn2)CC1` (stereo not shown) [CBK286845] the figure was 143.203%; with `COCc1cccc(-c2nccnc2OC2CCCCC2)c1` [CBK106959], 127.703%.
`Cc1ccc(-c2nsc(SCC(=O)c3ccc(Cl)cc3)n2)cc1` [CBK113177]: the “% of control remaining” value amounted to 122.595%.
With `Cc1ccc(SCCNC(=O)C(C)Sc2ccc(Cl)cc2)cc1` (stereo not shown) [CBK264104] the figure was 100%; with `CN(C)[C@H]1CCN(C(=O)c2ccc(Nc3cncc(Cl)n3)cn2)C1` [CBK172073], 131.934%.
With `Cc1cc(CN(C)Cc2cnn(-c3ccc(F)cc3)c2)n[nH]1` [CBK281706] the figure was 104.639%.
The figure for `COc1ccc2c(c1)C1(CC(=O)N(Cc3cccnc3)C1=O)C(=O)N2C` (stereo not shown) [CBK075236] is 100%; for `CC(C)c1nccc(CN2CCC(CCN3CCCC3=O)CC2)n1` [CBK306887] it is 97.469%.
With `Nc1cc(-c2cccs2)nn(Cc2ccccc2Cl)c1=O` [CBK282884], the “% of control remaining” value is on record as 120.314%.
The figure for `CC(C)C(=O)N1C[C@H]2N(C)C(=O)c3ccccc3C(=O)[C@@]2(C)C1` [CBK284568] is 159.167%; for `COc1ccc(Cn2c(C3CCNCC3)cc3cccnc32)cc1` [CBK285077] it is 142.743%; for `Clc1ccc(COc2ccnc(N3CCCNCC3)n2)cc1Cl` [CBK091550] it is 58.1273%.
The figure for `N#CCCN(CCC#N)C(=O)CN1C(=O)c2ccccc2C1=O` [CBK267100] is 155.761%.
With `O=C(CCn1c(-c2ccccc2)c(-c2ccccc2)c2ccccc21)N/N=C/c1cccc(O)c1` [CBK262348] the figure was 65.1139%; with `CC(C)c1cc(C(=O)N2CC(N3CCOCC3)C2)nc2ncnn12` [CBK306572], 114.738%; with `CN(C)CCNc1nc(-c2cccnc2)nc2ccccc12` [CBK264471C], 100%.
As for `COc1cc(CNc2cc(-c3cccc4cccnc34)ncn2)cc(OC)c1OC` [CBK091179], the “% of control remaining” value is recorded as 105.916%.
On to `O=C(/C=C/c1cn([C@H]2C[C@@H](O)[C@@H](CO)O2)c(=O)[nH]c1=O)ON1C(=O)CCC1=O` [CBK201188], for which the “% of control remaining” value was 186.405%.
The figure for `CNC(=O)c1ccc(-c2cccc(Cl)c2Cl)nc1N1CCOCC1` [CBK106215] is 97.8707%.
Take `Cc1nn(C)cc1-c1cncn1C(C)(C)CN1CCC(C)CC1` [CBK281740]: the “% of control remaining” value amounted to 139.871%.
The figure for `COc1ccccc1CC(C)NC(=O)c1csc(C(C)=O)c1` (stereo not shown) [CBK282517] is 74.3703%; for `COc1ccc(CCNC(=O)c2cnoc2-c2ccc(C)cc2)cc1` [CBK153731] it is 97.9012%; for `Cc1ccc(-c2cc(C(=O)NC3CN4CCC3CC4)[nH]n2)o1` (stereo not shown) [CBK283276] it is 125.009%.
Regarding `Clc1ccc(COc2cccc3c2CCCC3)cn1` [CBK002634], the “% of control remaining” value was 90.7821%.
For the compound `Nc1ncc(-c2ccc(Cl)cc2)c(C2CCCN(C(=O)Cc3c[nH]c4ccccc34)C2)n1` (stereo not shown) [CBK285574], the “% of control remaining” value amounted to 86.0259%.
For `CS(=O)(=O)c1ccc(-n2nnnc2CNC2(CO)CCCC2)cc1` [CBK304134], the “% of control remaining” value is on record as 95.5962%.
The figure for `CC1CCCCN1C(=O)Cn1cnc2c(Cl)cc(Cl)cc2c1=O` (stereo not shown) [CBK306149] is 114.853%.
As for `CC1CCC(N(Cc2nnc(C(C)C)o2)CC2CCCO2)CC1` (stereo not shown) [CBK305169], the “% of control remaining” value was found to be 100.429%.
With `NC(=O)c1ccc(-n2ncc(-c3ccsc3)n2)cc1` [CBK112858] the figure was 141.025%; with `CC1=NNC(=S)NC(C)(C)C1` [CBK021597], 72.9584%.
With `Cc1c(Cl)cccc1S(=O)(=O)Nc1cccc(C(=O)Nc2ccc(F)cc2)c1` [CBK038983] the figure was 89.3338%; with `Cc1ccc(CCC(=O)NNc2ccccc2)o1` [CBK260924], 104.556%; with `CC(=O)N1CCC2(C/C=C/C[C@H]3CN(C(=O)CCC4CCCC4)CC[C@H]3NC(=O)CNC2=O)CC1` [CBK292111], 145.786%.
The figure for `O=C(Cn1ncn2c(cc3ccsc32)c1=O)N1CCCCCC1` [CBK284202] is 107.476%; for `O=C(COc1ccc2ccccc2c1)N1CCN(S(=O)(=O)c2ccc([N+](=O)[O-])cc2)CC1` [CBK264277] it is 136.707%; for `CC(C)Cc1nsc(NC2CCCN(c3ccn(C)n3)C2=O)n1` (stereo not shown) [CBK304696] it is 168.553%.
For the compound `NC(=O)C1CCN(C(=O)C2=NN(c3ccccc3)C(c3ccccc3)C2)CC1` (stereo not shown) [CBK296760], the “% of control remaining” value amounted to 120.682%.
With `COCCC(=O)Nc1cccc(N2CCNCC2)c1` [CBK004769T], the “% of control remaining” value was found to be 121.243%.
Turning to `O=C1CCC(=O)N1CCOc1nccnc1N1CCN(CCCn2c(=O)[nH]c3ccccc32)CC1` [CBK084300], the “% of control remaining” value is reported as 49.949%.
The figure for `CCC(CO)NCc1ccc(OCC(N)=O)cc1` (stereo not shown) [CBK304670] is 110.663%; for `CC(Oc1ccc(Br)cc1)C(=O)Nc1ccc(C(N)=O)cc1` (stereo not shown) [CBK266760] it is 104.259%; for `N#Cc1c(NC(=S)NC(=O)c2ccc(-c3cccc([N+](=O)[O-])c3)o2)sc2c1CCCC2` [CBK268471] it is 124.689%.
As for `CCSc1nc(N2CCNC[C@@H]2C)ccc1C(F)(F)F` [CBK003986A], the “% of control remaining” value was found to be 106.479%.
On to `c1ccc2oc(-c3cc4ccccc4o3)cc2c1` [CBK113363], for which the “% of control remaining” value worked out at 111.032%.
The figure for `COc1cc(N)c(Cl)cc1C(=O)OCc1cc2ccc(C)cc2nc1Cl` [CBK296755] is 139.548%; for `Cc1c(C(=O)NC(Cc2ccsc2)c2cccnc2)cnn1C` (stereo not shown) [CBK285115] it is 91.5272%; for `O=C(CO)N1CC2(CCN(Cc3cc(=O)[nH]c(=O)[nH]3)CC2)c2ccccc21` [CBK131510] it is 100.184%.
The figure for `Cc1cc(C)nc(N2CCC(CC(=O)NCc3ccccc3N3CCCC3)CC2)n1` [CBK286071] is 128.376%.
With `CN(Cc1ccccc1)c1nccnc1-c1ccccc1Cl` [CBK037502] the figure was 126.189%; with `COc1ncc(-c2nccnc2Oc2cccc(NC(C)=O)c2)c(OC)n1` [CBK106747], 121.754%.
As for `O=c1c2ccccc2nc2n1CCN(Cc1c(F)cccc1F)CC2` [CBK284817], the “% of control remaining” value is 99.1624%.
The figure for `COc1ccc2c(CCNC(=O)C(c3ccccc3)c3ccccc3)c[nH]c2c1` [CBK269294] is 140.727%.
With `OCCNCCNCc1ccc(-c2ccccc2)cc1` [CBK278269C] the figure was 64.0332%.
For the compound `O=C(Nc1cccc(Br)c1)C1CN(S(=O)(=O)c2ccccc2)CCN1S(=O)(=O)c1ccccc1` (stereo not shown) [CBK262671], the “% of control remaining” value was determined as 99.2937%.
With `COCCN1C(=O)CO[C@H]2CN(C(=O)Nc3ccc(F)cc3)C[C@H]21` [CBK289705] the figure was 92.1206%.
Take `Cc1cc2ncc3c(n2n1)CC1CCC3N1Cc1ccccc1` (stereo not shown) [CBK282266]: the “% of control remaining” value is reported as 105.371%.
Consider `N=C1NS(=O)(=O)NC1c1ccc(Cl)cc1` (stereo not shown) [CBK263858], for which the “% of control remaining” value is given as 100%.
With `Cc1ccc(C(=O)COC(=O)C(Cc2ccccc2)N2C(=O)c3cc(Cl)c(Cl)cc3C2=O)cc1` (stereo not shown) [CBK264176] the figure was 125.681%.
